Measured values as given in ChEMBL document CHEMBL4513151, “CO-ADD screening of Institut Català d'Investigació Química (Spain) compounds”.
“And” between values parts separate entries of the source, which are not always exact repeats. Equal values may be shown once. This is one part of the list. Measured potencies and affinities stand elsewhere.

Tested on: Pseudomonas aeruginosa
Conditions: Concentration 32 ug.mL-1, ASSAY_TEST Inhibition of Bacterial Growth, detection method Absorption (OD600), MEDIA CAMHB, plate type 384well, NBS, CORNING #3640, time 18 hr

| SMILES | Inhibition [%] | Inhibition (32 ug/mL) |
| --- | --- | --- |
| C=C1CC(COC)(COC)C[C@@H]1[C@@H](Nc1ccc(Br)cc1)c1ccccc1 | 15.11 |  |
| C[C@]12CC[C@@](C3CC3)(O1)[C@H]1C=C[C@H](OC(=O)c3ccccc3)[C@H]12 |  | 8.14% and 15.07% |
| C[C@@H]1CC(=O)C=C2C(=O)[C@@H]3[C@@H](C3(C)C)[C@]21C | 11.33 |  |
| C[C@]12CC[C@@](c3ccc4ccccc4c3)(O1)[C@H]1C=C[C@H](OC(=O)c3ccccc3)[C@H]12 | 20.08 |  |
| C[C@]12CC[C@@](C3CCCC3)(O1)[C@H]1C=C[C@H](OC(=O)c3ccccc3)[C@H]12 | 5.09 |  |
| C=C1CC(C(=O)OC)(C(=O)OC)C[C@@H]1[C@H](c1ccccc1)n1ccc2ccccc21 | 7.04 |  |
| C=C1CC(C(=O)OC)(C(=O)OC)C[C@@H]1[C@H](c1ccccc1)n1ccc2ccc(Cl)cc21 | 21.99 |  |
| C[C@]12CC[C@@](C)(O1)[C@H]1C=C[C@H](OC(=O)c3ccccc3)[C@H]12 | 6.63 |  |
| C[C@]12CC[C@@](c3ccc(C(F)(F)F)cc3)(O1)[C@H]1C=C[C@H](OC(=O)c3ccccc3)[C@H]12 |  | 13.15% and 6.93% |
| C=C1CC(C(=O)OC)(C(=O)OC)C[C@@H]1[C@@H](NS(=O)(=O)c1ccc(C)cc1)c1ccccc1 | 15.93 |  |
| C[C@]12CC[C@@H](O1)[C@H]1C=C[C@H](OC(=O)c3ccccc3)[C@H]12 | 10.45 |  |
| C=C1CC(COCc2ccc(OC)cc2)(COCc2ccc(OC)cc2)C[C@@H]1[C@@H](Nc1ccc(Br)cc1)c1ccccc1 | -12.65 |  |
| C=C1CC2(COC(C)(C)OC2)C[C@@H]1[C@@H](Nc1ccc(Br)cc1)c1ccccc1 | 26.45 |  |

Some of these compounds in order of heavy-atom count, high to low:

| SMILES | Inhibition [%] | Inhibition (32 ug/mL) |
| --- | --- | --- |
| C=C1CC(C(=O)OC)(C(=O)OC)C[C@@H]1[C@H](c1ccccc1)n1ccc2ccc(Cl)cc21 | 21.99 |  |
| C=C1CC(C(=O)OC)(C(=O)OC)C[C@@H]1[C@H](c1ccccc1)n1ccc2ccccc21 | 7.04 |  |
| C[C@]12CC[C@@](C3CCCC3)(O1)[C@H]1C=C[C@H](OC(=O)c3ccccc3)[C@H]12 | 5.09 |  |
